Reference: PubChem BioAssay AID504467 (National Center for Advancing Translational Sciences (NCATS), 2011)
About 7,700 (2.3%) of roughly 330,000 compounds were called active. This list was built around the results that the source calls inconclusive (neither active nor inactive); the mix of calls is not that of the screen. Calls come from the whole dose curve; as a rule, active = well fitted inhibition curve with a large enough effect; inconclusive = small, poorly fitted or top-dose-only effect, or effect the other way; inactive = flat fitted curve, though single readings scatter. Potencies beside an inconclusive call are fits to weak or partial responses and may not hold up.

Assay: qHTS screen for small molecules that inhibit ELG1-dependent DNA repair in human embryonic kidney (HEK293T) cells expressing luciferase-tagged ELG1; note: nearly all actives have a fitted effect of over 55% in size
Settings: HEK293T ELG1-luciferase reporter, luminescence, 16 h, DNA damage induced by 5-fluorouridine; activity change, negative = inhibition: at 46.1 µM (top of the series)
Procedure, shortened: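 HEK293T cells expressing luciferase-tagged ELG1 (2,000/well) received 5-Fluorouridine plus compound or DMSO for 16 hr at 37 °C. Luciferase was read by ONE-Glo luminescence after 30 min at room temperature.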
% is set by controls: 0 for no effect and ±100 for the full control effect; potency is the fitted concentration of half-maximal effect.

Question: With `FC(F)Sc1ccc(NC(=S)NCC2CCCCC2)cc1` as the compound, how does the “activity change, negative = inhibition” value read?
Answer: Its value is inactive: 4.58%.

Question: For `CN(C)c1nc2ccccc2n(C)c1=O`, which Potency is on record?
Answer: The Potency was inconclusive: 9.2 µM [activator, partial curve, poor fit].

Question: Which Potency does the source give for `CCCc1nc2c(sc3nc4c(cc32)COC(C)(C)C4)c(=O)n1CCN(CC)CC` here?
Answer: Its Potency is inconclusive: 32.6 µM [activator, partial curve, poor fit].

Question: For `CC1CC2=C(NC(=S)NC2c2cccc(F)c2)/C(=C/c2cccc(F)c2)C1` (stereo not drawn), which Potency is on record?
Answer: Its Potency is inconclusive: 29.1 µM [inhibitor, partial curve, poor fit].

Question: For `COc1ccc(Nc2nc(N3CCCCC3)nc3ccccc23)c(OC)c1`, which Potency is on record?
Answer: The Potency was active: 23.1 µM.

Question: Which Potency does the source give for `CC(C)n1cc(/C=N/Nc2ccc(C(=O)O)cc2)c2ccccc21` here?
Answer: Its Potency is inconclusive: 0.92 µM [activator, full curve].

Question: With `COc1cc2c(cc1OC)-c1nnc(-c3ccco3)n1C1(CCCC1)C2` as the compound, how does the Potency read?
Answer: The Potency was inconclusive: 14.6 µM [inhibitor, partial curve].

Question: For `CC(=O)Nc1ccc(/C=C/c2nc(-c3ccccc3O)n[nH]2)cc1`, which Potency is on record?
Answer: Its Potency is inconclusive: 8.2 µM [activator, partial curve].

Question: For `C=CCN1C(=O)S/C(=C/c2ccsc2)C1=O`, which Potency is on record?
Answer: Its Potency is inconclusive: 23.1 µM [activator, single point].

Question: With `COc1ccc(-c2noc(-c3ccc(Br)o3)n2)cc1` as the compound, how does the Potency read?
Answer: Its Potency is inconclusive: 14.6 µM [activator, partial curve].

Question: With `CCC(=O)OC1CC(C)N(C(=O)c2ccccc2)c2ccc(C)cc21` (stereo not drawn) as the compound, how does the Potency read?
Answer: The Potency was inconclusive: 25.9 µM [inhibitor, partial curve, poor fit].

Question: With `CCOC(=O)c1sc(-c2ccc(OC)cc2)cc1NC(C)=O` as the compound, how does the Potency read?
Answer: The Potency was inconclusive: 29.1 µM [activator, single point].

Question: With `Cc1cc(C)n(C(=O)c2ccc([N+](=O)[O-])cc2N)n1` as the compound, how does the activity change, negative = inhibition read?
Answer: Its activity change, negative = inhibition is inconclusive: 30.3% [activator].

Question: With `CCc1ccc(Nc2nnc(SCC(=O)Nc3ccc(C(=O)O)cc3)s2)cc1` as the compound, how does the Potency read?
Answer: The Potency was inconclusive: 16.4 µM [activator, partial curve].

Question: For `O=C(CCl)N1CCN2C(=O)c3ccccc3C12c1ccc(Cl)cc1` (stereo not drawn), which “activity change, negative = inhibition” value is on record?
Answer: Its value is inactive: 15.9%.

Question: Which Potency does the source give for `Cc1ccc(NC(=O)CSc2nnc(-c3ccccc3C)o2)cc1C` here?
Answer: Its Potency is inconclusive: 14.6 µM [activator, partial curve].

Question: Which “activity change, negative = inhibition” value does the source give for `Cc1c(NC(=S)N/N=C/c2ccc([N+](=O)[O-])cc2O)c(=O)n(-c2ccccc2)n1C` here?
Answer: Its value is inactive: -25.2%.

Question: For `CC(=O)Oc1ccc(/C=C2/CCc3ccccc3C2=O)cc1`, which Potency is on record?
Answer: Its Potency is inconclusive: 3.26 µM [activator, full curve].

Question: For `COc1ccc(NC(C)=O)cc1NC(=O)CN1CCN(CC(=O)Nc2ccccc2Cl)CC1`, which Potency is on record?
Answer: Its Potency is inconclusive: 7.31 µM [inhibitor, partial curve].

Question: For `CCOC(=O)c1c(C)oc2cc(Br)c(O)c(Br)c12`, which Potency is on record?
Answer: Its Potency is inconclusive: 25.9 µM [activator, single point].

Question: For `CCn1c(=O)c(C(=O)CN2CCN(S(=O)(=O)c3ccccc3)CC2)c(N)n(Cc2ccccc2)c1=O`, which Potency is on record?
Answer: Its Potency is inconclusive: 16.4 µM [inhibitor, single point].

Question: With `O=C(NC12CC3CC(CC(C3)C1)C2)c1cc2nc(-c3ccco3)cc(C(F)(F)F)n2n1` as the compound, how does the Potency read?
Answer: Its Potency is inconclusive: 20.6 µM [inhibitor, single point].

Question: For `CN(Cc1ccccc1Cl)C(=O)C1CC(=O)N(c2ccc3c(c2)OCCO3)C1` (stereo not drawn), which “activity change, negative = inhibition” value is on record?
Answer: The value was inactive: 11.6%.

Question: With `C=CCOc1ccc2c(CC)cc(=O)oc2c1C` as the compound, how does the Potency read?
Answer: The Potency was inconclusive: 23.1 µM [activator, single point].

Question: Which “activity change, negative = inhibition” value does the source give for `COc1ccc(C(=O)N/C=C/n2cnc3cc(C(F)(F)F)ccc32)cc1` here?
Answer: Its value is inactive: -2.21%.

Question: For `CCOC(=O)c1c(C=O)c(C)n(Cc2ccc(C)cc2)c1C`, which Potency is on record?
Answer: The Potency was inconclusive: 29.1 µM [inhibitor, single point].

Question: For `Cc1ccc(C)c(N2CCN(C(=O)CN3C(=S)NC(C)(C)CC3C)CC2)c1` (stereo not drawn), which Potency is on record?
Answer: Its Potency is inconclusive: 18.3 µM [inhibitor, partial curve, poor fit].

Question: With `COc1cc(/C=N/Nc2nncc3ccccc23)cc(OC)c1OC` as the compound, how does the Potency read?
Answer: The Potency was inconclusive: 2.31 µM [activator, partial curve].

Question: For `COc1cccc2oc3cc(C#CC4(O)CCCCC4)ccc3c(=O)c12`, which Potency is on record?
Answer: Its Potency is inconclusive: 2.59 µM [activator, partial curve].

Question: Which Potency does the source give for `COCCN(Cc1nc2ccccc2c(=O)[nH]1)C(=O)COc1ccccc1-c1ccccc1` here?
Answer: The Potency was inconclusive: 7.3 µM [inhibitor, single point].

Question: Which Potency does the source give for `COc1ccccc1NC(=O)C(=O)/C=C(\O)c1ccccc1` here?
Answer: The Potency was inconclusive: 14.6 µM [activator, partial curve].

Question: Which Potency does the source give for `CNC(=S)NCCc1cc2c(OC)ccc(OC)c2[nH]c1=O` here?
Answer: The Potency was inconclusive: 20.6 µM [activator, partial curve].

Question: Which Potency does the source give for `CCCCN(C)S(=O)(=O)c1ccc(C(=O)Nc2nnc(CSC)o2)cc1` here?
Answer: The Potency was inconclusive: 18.4 µM [inhibitor, partial curve, poor fit].

Question: Which Potency does the source give for `O=C(Nc1ccc2nccnc2c1)Nc1ccccc1Cl` here?
Answer: The Potency was inconclusive: 9.2 µM [activator, partial curve].

Question: Which Potency does the source give for `O=C(Cc1c(Cl)cccc1Cl)OCC(=O)N1CCOCC1` here?
Answer: The Potency was inconclusive: 5.17 µM [activator, partial curve].

Question: For `CCOc1ccc2c(c1)C(NC(C)=O)C(=O)N2CCN1CCOCC1` (stereo not drawn), which “activity change, negative = inhibition” value is on record?
Answer: Its value is inactive: 5.83%.

Question: For `Cc1ccccc1NS(=O)(=O)c1cc(C(=O)NCCC2=CCCCC2)ccc1C`, which Potency is on record?
Answer: The Potency was inconclusive: 23.1 µM [inhibitor, partial curve].

Question: Which “activity change, negative = inhibition” value does the source give for `CC(C)n1cc(CN2CCN(C)C(CCO)C2)c2ccccc21` (stereo not drawn) here?
Answer: The value was inactive: -8.46%.

Question: For `CC1(C)CC2(CCO1)OC(=O)CC2C(=O)NCCc1ccccc1` (stereo not drawn), which Potency is on record?
Answer: The Potency was inconclusive: 0.058 µM [activator, full curve].

Question: Which Potency does the source give for `CCOCCOC(=O)c1[nH]c2c(c1C)C(=O)CC(c1ccc(OC)c(OC)c1)C2` (stereo not drawn) here?
Answer: The Potency was inconclusive: 11.6 µM [inhibitor, partial curve].

Question: For `COc1cc(NC(=O)CSc2ccc(-c3ccco3)nn2)cc(OC)c1`, which “activity change, negative = inhibition” value is on record?
Answer: Its value is inactive: -5.3%.

Question: With `O=C(Nc1nc2c(s1)CCc1ccccc1-2)c1cccs1` as the compound, how does the Potency read?
Answer: The Potency was inconclusive: 18.4 µM [inhibitor, single point].

Question: For `CN(C)c1ccc(C(=S)N2CCCCCC2)cc1`, which Potency is on record?
Answer: The Potency was inconclusive: 29.1 µM [activator, single point].

Question: For `CC1(C)C2CC=C(/C=N/NC(=O)c3ccccc3Br)C1C2` (stereo not drawn), which “activity change, negative = inhibition” value is on record?
Answer: The value was inactive: 8.63%.

Question: Which Potency does the source give for `Cc1cccc(C)c1NC(=O)Cn1c(CN2CCCCC2)nc2ccccc2c1=O` here?
Answer: Its Potency is inconclusive: 0.146 µM [inhibitor, partial curve, poor fit].

Question: For `CCOC(=O)N1CCN(C(=O)c2cc(-c3ccncc3)nc3ccccc23)CC1`, which Potency is on record?
Answer: Its Potency is inconclusive: 7.3 µM [inhibitor, single point].

Question: With `Cc1cccnc1Nc1nc(-c2ccccc2)cs1` as the compound, how does the Potency read?
Answer: The Potency was inconclusive: 1.46 µM [activator, partial curve].

Question: Which Potency does the source give for `CCOC(=O)c1c(C)n(C)c2cc(Br)c(OC)cc12` here?
Answer: The Potency was inconclusive: 29.1 µM [activator, single point].

Question: With `O=C(Nc1sc2c(c1C(=O)O)CCC2)c1cccc(Cl)c1` as the compound, how does the Potency read?
Answer: Its Potency is inconclusive: 18.3 µM [activator, partial curve, poor fit].

Question: Which “activity change, negative = inhibition” value does the source give for `O=C(NNC1=NC2(CCCC2)Cc2ccccc21)c1ccncc1` here?
Answer: Its value is inactive: -2.79%.

Question: Which Potency does the source give for `O=S(=O)(NCc1ccncc1)c1ccc(S(=O)(=O)NCC2CCCO2)cc1` (stereo not drawn) here?
Answer: Its Potency is inconclusive: 23.1 µM [inhibitor, single point].

Question: Which Potency does the source give for `COc1ccc(O)c(C(=O)CC(=O)c2ccc(F)cc2)c1` here?
Answer: The Potency was inconclusive: 1.84 µM [activator, partial curve].

Question: For `CCN(CC)S(=O)(=O)c1cc(C(=O)OCC(=O)Nc2ccc(-c3nc4ccc(C)cc4s3)cc2)ccc1F`, which Potency is on record?
Answer: Its Potency is inconclusive: 1.03 µM [activator, full curve].

Question: With `COc1ccc(N(CC(=O)Nc2ccc3c(c2)OCCO3)S(=O)(=O)c2c(C)noc2C)cc1` as the compound, how does the “activity change, negative = inhibition” value read?
Answer: The value was inactive: -11.3%.

Question: With `O=c1c2ccccc2nc(CSc2ncnc3nc[nH]c23)n1-c1cccc(C(F)(F)F)c1` as the compound, how does the Potency read?
Answer: The Potency was inconclusive: 18.4 µM [inhibitor, partial curve, poor fit].

Question: Which Potency does the source give for `Clc1ccc(-c2nnn(Cc3nc4ccccc4s3)n2)cc1` here?
Answer: Its Potency is inconclusive: 20.6 µM [activator, single point].

Question: Which “activity change, negative = inhibition” value does the source give for `O=C(N/N=C/c1cccs1)C(O)c1ccccc1` (stereo not drawn) here?
Answer: Its value is inactive: 0.845%.

Question: Which “activity change, negative = inhibition” value does the source give for `O=C(NC(Cc1ccccc1)C(=O)O)/C(=C/c1cccc([N+](=O)[O-])c1)NC(=O)c1ccco1` (stereo not drawn) here?
Answer: Its value is inactive: 3.03%.

Question: With `Cc1nc(NC(=O)c2ccccc2)sc1C` as the compound, how does the Potency read?
Answer: Its Potency is inconclusive: 8.91 µM [activator, partial curve].

Question: For `Cc1n[nH]c(C)c1S(=O)(=O)Nc1ccc2c(c1)OCCO2`, which Potency is on record?
Answer: The Potency was inconclusive: 23.1 µM [activator, partial curve].

Question: With `O=[N+]([O-])c1cc(CN2CCOCC2)c2cccnc2c1O` as the compound, how does the “activity change, negative = inhibition” value read?
Answer: The value was inactive: -11%.

Question: For `CC(=O)Cc1nsc(Nc2ccccc2)n1`, which Potency is on record?
Answer: The Potency was inconclusive: 16.4 µM [activator, single point].

Question: For `CCn1c(C)nc2cc(C(=O)N/N=C/c3ccc(O)cc3)ccc21`, which Potency is on record?
Answer: The Potency was inconclusive: 18.4 µM [activator, single point].

Question: For `Cc1ccc(C2=NN3C(=O)c4ccccc4C3C2)cc1` (stereo not drawn), which Potency is on record?
Answer: Its Potency is inconclusive: 18.3 µM [activator, partial curve].

Question: Which Potency does the source give for `O=C1COc2ccccc2N1Cc1ccccc1Cl` here?
Answer: Its Potency is inconclusive: 13 µM [activator, partial curve].

Question: Which Potency does the source give for `O=C(Nc1cccc(S(=O)(=O)N2CCCCC2)c1)c1ccc([N+](=O)[O-])o1` here?
Answer: Its Potency is inconclusive: 23.1 µM [inhibitor, partial curve].

Question: Which Potency does the source give for `CCOc1ccccc1NC(=O)NC(=O)N(C)S(C)(=O)=O` here?
Answer: The Potency was inconclusive: 0.231 µM [inhibitor, single point].

Question: With `N#Cc1ccc(S(=O)(=O)N2CCCN(c3ccc(C(F)(F)F)cn3)CC2)cc1` as the compound, how does the Potency read?
Answer: The Potency was inconclusive: 29.1 µM [inhibitor, single point].
